Assay results published in the supplement of paper PMC10849652.
The other results are listed elsewhere or left out.

Chains of the proteins cited; added tags and fusions are not shown. Lines headed by an entry give the natural chain unless they say otherwise; changes in a name come on top.
UniProt L0R819, whole entry, looked up: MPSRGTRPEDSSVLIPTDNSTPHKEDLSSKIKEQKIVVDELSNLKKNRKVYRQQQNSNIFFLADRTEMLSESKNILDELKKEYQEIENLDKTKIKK
UniProt Q8NB49: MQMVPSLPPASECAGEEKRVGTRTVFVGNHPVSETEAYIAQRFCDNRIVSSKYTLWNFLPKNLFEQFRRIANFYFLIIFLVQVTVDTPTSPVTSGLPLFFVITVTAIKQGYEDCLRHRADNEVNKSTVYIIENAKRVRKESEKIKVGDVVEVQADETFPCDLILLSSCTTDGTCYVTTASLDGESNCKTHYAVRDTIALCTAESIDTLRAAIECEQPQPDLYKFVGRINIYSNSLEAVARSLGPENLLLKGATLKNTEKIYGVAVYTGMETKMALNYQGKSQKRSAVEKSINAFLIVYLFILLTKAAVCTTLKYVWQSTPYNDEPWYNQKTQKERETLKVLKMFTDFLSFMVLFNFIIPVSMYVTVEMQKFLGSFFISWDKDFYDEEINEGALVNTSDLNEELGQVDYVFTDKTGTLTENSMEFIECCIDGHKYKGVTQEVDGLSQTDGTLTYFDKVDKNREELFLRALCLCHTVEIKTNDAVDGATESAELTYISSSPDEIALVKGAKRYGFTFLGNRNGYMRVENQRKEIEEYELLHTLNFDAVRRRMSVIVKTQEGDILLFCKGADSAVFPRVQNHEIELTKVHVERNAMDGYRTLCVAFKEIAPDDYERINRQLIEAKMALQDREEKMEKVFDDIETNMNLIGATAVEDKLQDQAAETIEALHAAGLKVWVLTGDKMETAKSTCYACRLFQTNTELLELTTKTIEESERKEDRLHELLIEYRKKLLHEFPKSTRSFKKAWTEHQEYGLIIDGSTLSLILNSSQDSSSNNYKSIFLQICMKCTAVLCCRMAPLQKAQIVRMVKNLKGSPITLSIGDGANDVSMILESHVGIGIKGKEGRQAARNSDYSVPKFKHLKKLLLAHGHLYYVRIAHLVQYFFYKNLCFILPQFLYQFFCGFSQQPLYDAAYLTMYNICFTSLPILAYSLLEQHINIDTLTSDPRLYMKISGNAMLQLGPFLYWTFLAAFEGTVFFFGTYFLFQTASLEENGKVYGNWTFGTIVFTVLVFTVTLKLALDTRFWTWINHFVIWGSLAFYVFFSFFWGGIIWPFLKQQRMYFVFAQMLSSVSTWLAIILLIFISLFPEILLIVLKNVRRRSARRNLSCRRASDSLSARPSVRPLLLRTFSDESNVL
UniProt P27449, whole entry, looked up: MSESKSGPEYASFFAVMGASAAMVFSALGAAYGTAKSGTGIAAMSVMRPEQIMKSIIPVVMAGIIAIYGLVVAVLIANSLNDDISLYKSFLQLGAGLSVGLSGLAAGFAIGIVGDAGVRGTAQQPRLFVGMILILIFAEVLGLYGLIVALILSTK
UniProt Q99700, whole entry, looked up: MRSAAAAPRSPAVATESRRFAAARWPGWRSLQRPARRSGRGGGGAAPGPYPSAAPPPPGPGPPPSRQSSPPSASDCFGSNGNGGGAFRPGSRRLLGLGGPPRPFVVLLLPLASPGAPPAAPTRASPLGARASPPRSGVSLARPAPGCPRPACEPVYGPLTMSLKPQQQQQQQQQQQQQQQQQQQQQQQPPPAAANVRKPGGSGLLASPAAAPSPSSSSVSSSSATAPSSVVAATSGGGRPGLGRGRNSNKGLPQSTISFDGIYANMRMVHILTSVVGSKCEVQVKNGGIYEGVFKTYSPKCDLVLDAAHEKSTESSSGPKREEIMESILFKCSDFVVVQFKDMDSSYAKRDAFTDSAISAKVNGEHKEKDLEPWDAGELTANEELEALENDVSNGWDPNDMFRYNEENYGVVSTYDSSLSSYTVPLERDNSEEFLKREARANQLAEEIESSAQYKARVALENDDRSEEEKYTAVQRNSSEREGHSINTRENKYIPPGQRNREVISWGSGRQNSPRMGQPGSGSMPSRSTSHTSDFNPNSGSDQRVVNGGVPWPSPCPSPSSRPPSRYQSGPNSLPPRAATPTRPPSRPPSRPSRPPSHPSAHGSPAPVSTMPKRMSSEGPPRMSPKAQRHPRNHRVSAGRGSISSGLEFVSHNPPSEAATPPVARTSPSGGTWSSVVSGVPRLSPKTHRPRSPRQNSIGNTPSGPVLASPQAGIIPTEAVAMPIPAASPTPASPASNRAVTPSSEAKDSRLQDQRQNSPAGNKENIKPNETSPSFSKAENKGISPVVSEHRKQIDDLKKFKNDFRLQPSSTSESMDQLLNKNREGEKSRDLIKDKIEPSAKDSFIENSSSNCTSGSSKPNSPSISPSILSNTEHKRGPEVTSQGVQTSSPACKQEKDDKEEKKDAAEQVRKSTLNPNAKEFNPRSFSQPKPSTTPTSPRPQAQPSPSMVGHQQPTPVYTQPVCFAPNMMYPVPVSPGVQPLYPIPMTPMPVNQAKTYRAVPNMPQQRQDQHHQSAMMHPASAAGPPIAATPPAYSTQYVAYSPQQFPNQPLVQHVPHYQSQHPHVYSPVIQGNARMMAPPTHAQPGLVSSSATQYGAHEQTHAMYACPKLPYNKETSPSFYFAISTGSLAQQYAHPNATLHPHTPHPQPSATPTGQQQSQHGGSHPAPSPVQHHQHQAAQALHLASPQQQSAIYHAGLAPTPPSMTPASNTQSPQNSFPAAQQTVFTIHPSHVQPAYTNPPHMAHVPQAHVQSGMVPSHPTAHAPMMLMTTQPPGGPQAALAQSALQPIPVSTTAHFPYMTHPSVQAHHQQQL
UniProt P25311: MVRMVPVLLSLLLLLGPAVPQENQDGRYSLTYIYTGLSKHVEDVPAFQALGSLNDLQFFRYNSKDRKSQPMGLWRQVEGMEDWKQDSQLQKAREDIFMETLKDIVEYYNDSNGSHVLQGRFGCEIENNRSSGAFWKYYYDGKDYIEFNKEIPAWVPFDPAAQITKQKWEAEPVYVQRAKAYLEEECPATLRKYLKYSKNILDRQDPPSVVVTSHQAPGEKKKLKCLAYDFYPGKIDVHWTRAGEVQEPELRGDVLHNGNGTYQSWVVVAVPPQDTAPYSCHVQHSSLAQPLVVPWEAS
UniProt P21281, whole entry, looked up: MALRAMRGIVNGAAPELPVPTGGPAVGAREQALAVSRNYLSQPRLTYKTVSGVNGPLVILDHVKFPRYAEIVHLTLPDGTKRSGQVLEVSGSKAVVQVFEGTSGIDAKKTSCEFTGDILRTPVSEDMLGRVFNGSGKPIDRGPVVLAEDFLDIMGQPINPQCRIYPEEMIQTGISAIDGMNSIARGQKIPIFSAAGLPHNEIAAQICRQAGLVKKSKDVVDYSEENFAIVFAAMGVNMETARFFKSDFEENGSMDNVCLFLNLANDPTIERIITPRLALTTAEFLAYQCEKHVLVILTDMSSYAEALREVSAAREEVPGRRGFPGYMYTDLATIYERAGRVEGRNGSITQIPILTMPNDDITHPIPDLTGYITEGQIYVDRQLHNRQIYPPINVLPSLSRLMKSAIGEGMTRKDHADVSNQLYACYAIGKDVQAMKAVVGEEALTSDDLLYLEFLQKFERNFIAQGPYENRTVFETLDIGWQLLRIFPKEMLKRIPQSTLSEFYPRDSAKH
UniProt Q9NQS1: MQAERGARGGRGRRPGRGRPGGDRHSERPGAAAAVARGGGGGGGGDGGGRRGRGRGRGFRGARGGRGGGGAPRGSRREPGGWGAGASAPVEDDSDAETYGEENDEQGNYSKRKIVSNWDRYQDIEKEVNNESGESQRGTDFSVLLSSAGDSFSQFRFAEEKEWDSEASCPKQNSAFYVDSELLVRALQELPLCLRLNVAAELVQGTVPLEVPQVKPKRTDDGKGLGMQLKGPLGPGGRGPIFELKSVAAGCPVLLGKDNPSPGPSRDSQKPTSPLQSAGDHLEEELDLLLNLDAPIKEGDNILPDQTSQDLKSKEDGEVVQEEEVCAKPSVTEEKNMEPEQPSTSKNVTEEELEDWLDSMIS
UniProt P30049: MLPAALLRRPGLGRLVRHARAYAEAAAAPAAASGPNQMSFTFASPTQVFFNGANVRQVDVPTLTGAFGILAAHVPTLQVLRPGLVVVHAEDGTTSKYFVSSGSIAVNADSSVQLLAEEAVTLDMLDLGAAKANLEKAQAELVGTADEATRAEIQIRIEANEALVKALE
UniProt Q16864, whole entry, looked up: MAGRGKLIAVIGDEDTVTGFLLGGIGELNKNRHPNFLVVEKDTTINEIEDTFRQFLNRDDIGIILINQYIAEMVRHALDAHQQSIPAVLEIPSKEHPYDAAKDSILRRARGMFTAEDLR
UniProt P56378: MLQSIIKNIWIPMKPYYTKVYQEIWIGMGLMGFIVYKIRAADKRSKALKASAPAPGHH
UniProt P98194: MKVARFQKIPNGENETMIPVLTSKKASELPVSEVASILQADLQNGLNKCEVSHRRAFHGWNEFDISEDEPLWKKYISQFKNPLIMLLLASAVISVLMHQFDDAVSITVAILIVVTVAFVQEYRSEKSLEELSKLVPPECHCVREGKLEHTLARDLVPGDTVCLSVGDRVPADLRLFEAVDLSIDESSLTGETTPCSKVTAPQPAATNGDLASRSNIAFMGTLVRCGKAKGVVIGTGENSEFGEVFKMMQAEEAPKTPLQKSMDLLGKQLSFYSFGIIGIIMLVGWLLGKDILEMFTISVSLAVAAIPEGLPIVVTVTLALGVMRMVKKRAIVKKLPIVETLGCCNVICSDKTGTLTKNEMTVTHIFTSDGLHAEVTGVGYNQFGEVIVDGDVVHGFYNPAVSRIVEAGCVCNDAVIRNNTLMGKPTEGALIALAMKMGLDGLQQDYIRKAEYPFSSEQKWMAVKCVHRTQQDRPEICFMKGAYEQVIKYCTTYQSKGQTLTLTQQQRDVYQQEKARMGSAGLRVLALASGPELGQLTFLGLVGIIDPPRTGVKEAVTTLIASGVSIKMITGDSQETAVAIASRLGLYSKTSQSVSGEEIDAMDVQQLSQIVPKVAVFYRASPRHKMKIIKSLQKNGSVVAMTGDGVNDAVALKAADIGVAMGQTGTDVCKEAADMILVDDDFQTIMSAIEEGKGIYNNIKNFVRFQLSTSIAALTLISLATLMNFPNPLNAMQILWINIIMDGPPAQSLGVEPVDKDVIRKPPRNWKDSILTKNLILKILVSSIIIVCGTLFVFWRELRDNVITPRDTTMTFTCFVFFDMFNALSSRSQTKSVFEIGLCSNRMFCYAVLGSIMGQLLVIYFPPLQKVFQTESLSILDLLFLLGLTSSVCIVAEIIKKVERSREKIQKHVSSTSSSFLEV
UniProt Q9H1I8: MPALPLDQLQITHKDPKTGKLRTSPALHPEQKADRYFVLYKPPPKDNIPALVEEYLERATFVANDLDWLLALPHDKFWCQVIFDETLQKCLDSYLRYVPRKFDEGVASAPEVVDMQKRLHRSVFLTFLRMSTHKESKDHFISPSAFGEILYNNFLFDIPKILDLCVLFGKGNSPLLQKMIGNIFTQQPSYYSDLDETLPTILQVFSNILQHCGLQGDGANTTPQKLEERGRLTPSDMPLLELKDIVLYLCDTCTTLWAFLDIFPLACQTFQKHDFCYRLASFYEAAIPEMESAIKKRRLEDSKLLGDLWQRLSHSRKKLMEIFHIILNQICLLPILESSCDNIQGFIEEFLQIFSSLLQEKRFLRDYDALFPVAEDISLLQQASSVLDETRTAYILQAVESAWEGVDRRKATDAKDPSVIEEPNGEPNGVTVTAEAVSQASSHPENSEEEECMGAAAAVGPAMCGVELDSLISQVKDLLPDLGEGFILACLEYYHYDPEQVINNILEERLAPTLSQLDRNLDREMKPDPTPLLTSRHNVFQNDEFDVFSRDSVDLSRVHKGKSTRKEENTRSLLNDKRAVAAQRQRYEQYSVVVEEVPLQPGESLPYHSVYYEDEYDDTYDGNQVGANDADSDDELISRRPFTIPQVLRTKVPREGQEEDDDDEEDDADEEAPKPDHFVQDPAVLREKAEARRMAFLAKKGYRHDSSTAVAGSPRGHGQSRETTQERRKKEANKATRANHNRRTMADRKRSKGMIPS

What was measured:
Experiment in all cases: log2 fold change, soluble protein after heating vs DMSO (PISA); higher = thermal stabilisation; K562 lysate, 10 uM; active = over 0.2 and 3.5 SD of the protein, either way, in both replicates (recomputed)
[1] = compound: NCC(=O)Nc1ccc(-n2nc(C(F)(F)F)cc2-c2ccc3c(ccc4ccccc43)c2)cc1
How it was run: (§1)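 K562 pellets were dounce-homogenised in PBS pH 7.4 containing 1 mM MgCl2, and the crude extract, at 1 mg/mL protein, was exposed to 10 μM compound for 30 min. Aliquots were heated for 3 min across 48°C-58°C, pooled, brought to 0.5% NP-40 at 4°C and spun at 21,000xg for 90 min, with the supernatant taken as soluble protein. TMTpro 16plex LC-MS/MS with equalised channel sums quantified that protein. Values are log-two fold changes in thermal stability relative to solvent controls, taken from duplicates.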

[2] = compound: O=C(CCCCCCC(=O)Nc1ccccc1)NO [vorinostat]
How it was run: as §1

[3] = compound: O=C(O)c1ccc2c(c1)nc(Nc1cccc(Cl)c1)c1ccncc12 [silmitasertib]
How it was run: as §1

[4] = compound: O=C1NC(=O)C(c2cnc3ccccn23)=C1c1cn2c3c(cc(F)cc13)CN(C(=O)N1CCCCC1)CC2
How it was run: as §1

[5] = compound: c1cn2cc(-c3ccc4cn[nH]c4c3)nc(Nc3ccc(N4CCOCC4)cc3)c2n1 [entospletinib]
How it was run: as §1

Measured: log2 fold change

ASDURF (UniProt L0R819)
inactive: [1] 0.012 | [2] 0.07 | [3] 0.012 | [4] -0.023 | [5] 0.028

ATP11C (UniProt Q8NB49)
inactive: [1] -0.019 | [2] 0.072 | [3] 0.014 | [4] -0.005 | [5] -0.002

ATP6V0C (UniProt P27449)
inactive: [1] 0.021 | [2] 0.179 | [3] 0.051 | [4] 0.079 | [5] 0.082

ATXN2 (UniProt Q99700)
inactive: [1] 0.024 | [3] -0.01 | [4] -0.005 | [5] -0.008
active: [2] -0.282

ATP1A3 isoform 3 (UniProt P13637)
inactive: [1] 0.028 | [2] 0.087 | [3] 0.003 | [4] 0.004 | [5] 0.006

AZGP1 (UniProt P25311)
inactive: [1] 0.073 | [2] 0.155 | [3] -0.449 | [4] 0.328 | [5] -0.066

ATP6V1B2 (UniProt P21281)
inactive: [1] 0.002 | [2] 0.127 | [3] -0.018 | [4] 0.014 | [5] 0.032

AVEN (UniProt Q9NQS1)
inactive: [1] -0.146 | [3] -0.009 | [4] 0.092 | [5] -0.161
active: [2] -0.738

2 successive records already listed:
ATXN2 (UniProt Q99700)
inactive: [1] 0.024 | [3] -0.01 | [4] -0.005 | [5] -0.008
active: [2] -0.282

ATP1A3 isoform 3 (UniProt P13637)
inactive: [1] 0.028 | [2] 0.087 | [3] 0.003 | [4] 0.004 | [5] 0.006

Following part

ATP5F1D (UniProt P30049)
inactive: [1] -0.079 | [2] 0.135 | [3] 0.027 | [4] 0.019 | [5] -0.036

ATP6V1F isoform 2 (UniProt Q16864)
inactive: [1] 0.055 | [2] -0.06 | [3] 0.021 | [4] 0.086 | [5] -0.04

ATP5MPL (UniProt P56378)
inactive: [1] -0.103 | [2] 0.077 | [3] 0.034 | [4] -0.02 | [5] 0.01

ATP2C1 isoform 7 (UniProt P98194)
inactive: [1] 0.199 | [2] 0.092 | [3] 0.082 | [4] -0.013 | [5] -0.047

ASCC2 (UniProt Q9H1I8)
inactive: [1] -0.008 | [2] -0.048 | [3] 0.077 | [4] 0.026 | [5] -0.017
